PubChem BioAssay AID1224828, NIAID, 2016

Screen: 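Find genes required for NF-kappaB p65 moving into the nucleus after LPS in mouse macrophages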 (primary screen)
System: mouse RAW264.7 G9 macrophage reporter cells (GFP-p65, Tnf promoter-mCherry)
Knock-down reagent: siRNA pool against mouse genes, 100 nM
Timing: 2 days siRNA transfection, then 40 min LPS before fixation
Treatment: LPS (Salmonella minnesota R595) at 10 ng/ml
Detection: 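Imaged p65 nuclear translocation ratio, normalised to the plate median, converted to robust z-scores and averaged across two replicates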
Reading the numbers: p65 translocation robust z-score: higher = more nuclear NF-kappaB p65 after LPS than the plate median; nuclear/cytoplasmic p65 ratio: higher = more nuclear NF-kappaB p65
Hit rule: 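Active if robust z is above 3.3 (negative regulators) or below -1.56, the Tlr4 control median (positive regulators); activity score 50 or more; control wells not called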
Calls: active = hit (p65 shift raised or lowered); inactive = no clear change
In all, the deposit lists about 17,000 reagents; this is a part drawn at random. 762 of them (4.5%) were called active. 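Active calls include both raised and lowered p65 entry, mostly lowered; wells with fewer than 50 cells lack a z-score.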 Raw values vary from plate to plate and are shown uncorrected. Reagent sequences are not shown.

Silencing of Psg19 gave: nuclear/cytoplasmic p65 ratio, rep 1 = 1.32; nuclear/cytoplasmic p65 ratio, rep 2 = 1.11; low cell count flag fewer than 50 cells per well; well left out of scoring; inactive. With knock-down of Znf41-ps, the screen gave nuclear/cytoplasmic p65 ratio, rep 1 = 1.44; nuclear/cytoplasmic p65 ratio, rep 2 = 1.62; low cell count flag fewer than 50 cells per well; well left out of scoring; inactive. Against Hoxa6, the values are p65 translocation robust z-score -1.1; nuclear/cytoplasmic p65 ratio, rep 1 = 1.5; nuclear/cytoplasmic p65 ratio, rep 2 = 1.4; low cell count flag enough cells to score; inactive. Against Rnf11, the values are nuclear/cytoplasmic p65 ratio, rep 1 = 1.23; nuclear/cytoplasmic p65 ratio, rep 2 = 1.03; low cell count flag fewer than 50 cells per well; well left out of scoring; inactive. Ppa2 gave p65 translocation robust z-score 0.55; nuclear/cytoplasmic p65 ratio, rep 1 = 1.64; nuclear/cytoplasmic p65 ratio, rep 2 = 1.75; low cell count flag enough cells to score; inactive. After knock-down of Serpinb9b, the record shows nuclear/cytoplasmic p65 ratio, rep 1 = 1.26; nuclear/cytoplasmic p65 ratio, rep 2 = 1.22; low cell count flag fewer than 50 cells per well; well left out of scoring; inactive.

With knock-down of Foxp1 the results were p65 translocation robust z-score -0.11; nuclear/cytoplasmic p65 ratio, rep 1 = 1.4; nuclear/cytoplasmic p65 ratio, rep 2 = 1.38; low cell count flag enough cells to score; inactive. After knock-down of St14 the results were nuclear/cytoplasmic p65 ratio, rep 1 = 1.41; nuclear/cytoplasmic p65 ratio, rep 2 = 1.36; low cell count flag fewer than 50 cells per well; well left out of scoring; inactive. Nhlh2 gave p65 translocation robust z-score -1.09; nuclear/cytoplasmic p65 ratio, rep 1 = 1.57; nuclear/cytoplasmic p65 ratio, rep 2 = 1.46; low cell count flag enough cells to score; inactive. Cdh26 showed p65 translocation robust z-score 2.51; nuclear/cytoplasmic p65 ratio, rep 1 = 2.1; nuclear/cytoplasmic p65 ratio, rep 2 = 1.83; low cell count flag enough cells to score; inactive. For Cyp3a44, the entry reads p65 translocation robust z-score 0.18; nuclear/cytoplasmic p65 ratio, rep 1 = 1.57; nuclear/cytoplasmic p65 ratio, rep 2 = 1.85; low cell count flag enough cells to score; inactive. Against Srsf11, the entry reads p65 translocation robust z-score 2.71; nuclear/cytoplasmic p65 ratio, rep 1 = 1.88; nuclear/cytoplasmic p65 ratio, rep 2 = 2.16; low cell count flag enough cells to score; inactive.
